Assay results as given in PubChem BioAssay AID720706 (Broad Institute, 2013).
The list shows a part of the results.

assay: GFP drop in mixed WT/humanized-ribosome E. coli culture – GFP/RFP fluorescence, OD600, single point, bacterial rRNA inhibitor project, primary screen (AID 720706); conditions: E. coli WT GFP vs humanized-ribosome RFP mutants, 24 h; OD600 change: measured here: OD600 growth, DMSO median 0, no signal -100; RFP signal change: measured here: RFP humanized mutant strains, DMSO median 0, no signal -100, concentration not given here

SMILES | OD600 change [%] | RFP signal change [%]
CCOC(=O)N1CCC(Nc2ccc(F)cc2)CC1 | 7.02 | 9.65
O=C(NCC1(N2CCCCC2)CCCCC1)c1ccc(F)cc1 | 11.1 | -3.21
CCCCn1nnnc1C(c1cc2ccccc2o1)N1CCC(n2c(=O)[nH]c3ccccc32)CC1 (stereo unspecified) | -4.01 | 1.99
O=P1(N(CCCl)CCCl)SCCCS1 | 11.3 | 1.86
CCCCOc1ccc(C(=O)NCC2(N3CCOCC3)CCCCC2)cc1 | -1.04 | 0.225
CC(C)(C)n1nnnc1C(c1ccccc1)N1CCC(n2c(=O)[nH]c3ccccc32)CC1 (stereo unspecified) | -21.9 | -4.56
COc1cc(C(=O)NCC2(N(C)C)CCCCC2)ccc1OC(F)F | 5.69 | 1.36
CCOC(=O)N1CCC(Nc2cccc(C)c2)CC1 | 0.87 | -3.59
O=c1[nH]c2ccccc2n1C1CCN(C(c2cccc3ccccc23)c2nnnn2C2CCCC2)CC1 (stereo unspecified) | 11.6 | -0.992
O=c1[nH]c2ccccc2n1C1CCN(C(c2ccccc2)c2nnnn2C2CCCCC2)CC1 (stereo unspecified) | 17 | -3.14
Cc1cccc(NC2(C#N)CCN(Cc3ccccc3)CC2)c1 | 19.4 | 4.87
CCC(c1nnnn1C1CCCC1)N1CCC(n2c(=O)[nH]c3ccccc32)CC1 (stereo unspecified) | -1.8 | 2.96
COc1ccc(C(=O)NCC2(N3CCCCC3)CCCCC2)c(OC)c1OC | 5.95 | 0.705
CC(C)(C)OC(=O)N1CCC(N(C(=O)c2ccccc2)c2ccc(F)cc2)CC1 | 0.025 | -0.235
COc1ccc(C(=O)NCC2(N3CCCCC3)CCCCC2)cc1 | 6.19 | 5.84
CCCCn1nnnc1C(c1cccs1)N1CCC(n2c(=O)[nH]c3ccccc32)CC1 (stereo unspecified) | -50.9 | -5.74
CCCCn1nnnc1C(CC)N1CCC(n2c(=O)[nH]c3ccccc32)CC1 (stereo unspecified) | 4.01 | 7.25
O=C(NCC1(N2CCCCC2)CCCCC1)c1cccs1 | 11.9 | 2.45
O=C(NCC1(N2CCCCC2)CCCCC1)c1ccc(=O)[nH]c1 | 14.7 | 0.121
COc1ccc(Cl)cc1C(=O)NCC1(N2CCOCC2)CCCCC1 | 1.91 | 2.17
O=C(OC1CN2CCC1CC2)C1c2ccccc2Oc2ccccc21 (stereo unspecified) | 1.59 | 3.69
O=c1[nH]c2ccccc2n1C1CCN(C(c2cc3ccccc3o2)c2nnnn2C2CCCCC2)CC1 (stereo unspecified) | 34 | 1.81
O=C(NCC1(N2CCCCC2)CCCCC1)c1ccc(Cl)s1 | 10 | 14.2
N#CC1(Nc2ccccc2)CCN(Cc2ccccc2)CC1 | 9.7 | 0.445

SMILES | OD600 change [%] | RFP signal change [%]
CCCCn1nnnc1C(c1ccc(OC)cc1)N1CCC(n2c(=O)[nH]c3ccccc32)CC1 (stereo unspecified) | -12.6 | 1.77
CCOC(=O)N1CCC(Nc2ccc(OC)cc2)CC1 | 10.8 | -1.33
Cc1cc(C)cc(N(C(=O)c2ccccc2)C2CCN(C(=O)OC(C)(C)C)CC2)c1 | -3.81 | 0.898
O=c1[nH]c2ccccc2n1C1CCN(C(c2ccccc2OC(F)(F)F)c2nnnn2C2CCCCC2)CC1 (stereo unspecified) | 11.2 | 0.712
O=C(NCC1(N2CCCCC2)CCCCC1)c1ccc(Cl)nc1 | -0.36 | 11.5
CCC(c1nnnn1C(C)(C)C)N1CCC(n2c(=O)[nH]c3ccccc32)CC1 (stereo unspecified) | 16.5 | 4.24
O=C(NCC1(N2CCOCC2)CCCCC1)c1cc(F)c(F)cc1Cl | 15.1 | 2.91
COc1cc(OC)c(C(=O)NCC2(N(C)C)CCCCC2)cc1OC | 11.9 | 0.188
CCCCn1nnnc1C(c1ccnc2ccccc12)N1CCC(n2c(=O)[nH]c3ccccc32)CC1 (stereo unspecified) | -14.1 | -1.38
CC(C)c1ccc(NC2CCN(C(=O)OC(C)(C)C)CC2)cc1 | 1.31 | -5.03
CN(C)c1cccc(C(=O)NCC2(N3CCCCC3)CCCCC2)c1 | 6.98 | -0.71
COc1ccc(CN(CCCl)CCCl)cc1Cl | 11.5 | 9.12
COc1ccc(C(c2nnnn2C2CCCC2)N2CCC(n3c(=O)[nH]c4ccccc43)CC2)cc1 (stereo unspecified) | -14.2 | -0.43
CCCOc1ccc(C(=O)NCC2(N(C)C)CCCCC2)cc1OC | 8.44 | -1.93
Cc1ccc(C(=O)NCC2(N(C)C)CCCCC2)o1 | 9.57 | 3.73
O=C(NCC1(N2CCCCC2)CCCCC1)c1cncc(Br)c1 | 1.15 | 1.21
CN1CCC(Nc2cccc(F)c2)CC1 | 15 | -9.59
O=c1[nH]c2ccccc2n1C1CCN(C(c2ccccc2OC(F)(F)F)c2nnnn2C2CCCC2)CC1 (stereo unspecified) | 32.8 | 0.475
CCN1CCC(Nc2ccc(Cl)cc2)CC1 | 15.4 | 13.2
O=C(NCC1(N2CCCCC2)CCCCC1)c1cccc([N+](=O)[O-])c1 | 18.6 | 1.86
CSc1ccc(C(=O)NCC2(N3CCOCC3)CCCCC2)cc1 | 7.49 | 0.145
CC(C)(C)n1nnnc1C(c1ccccc1OC(F)(F)F)N1CCC(n2c(=O)[nH]c3ccccc32)CC1 (stereo unspecified) | 7.99 | -0.306
COc1cc(C(=O)NCC2(N3CCCCC3)CCCCC2)ccc1OC(F)F | 16.4 | 1.25
CCCCn1nnnc1C(c1cccc2ccccc12)N1CCC(n2c(=O)[nH]c3ccccc32)CC1 (stereo unspecified) | 1.48 | -2

SMILES | OD600 change [%] | RFP signal change [%]
CN1CCN(CCOC(=O)C(O)(c2ccccc2)c2ccccc2)CC1 | 6.75 | -1.71
COc1ccc(NC2CCN(C(=O)OC(C)(C)C)CC2)cc1 | 0.086 | -2.96
CC(C)c1ccc(C(=O)NCC2(N3CCOCC3)CCCCC2)cc1 | -2.78 | 0.757
O=C(NCC1(N2CCCCC2)CCCCC1)c1cccc(C(F)(F)F)c1 | -3.41 | 0.584
N#Cc1ccc(C(=O)NCC2(N3CCCCC3)CCCCC2)cc1 | 10.9 | 6.4
CC(C)(C)OC(=O)N1CCC(N(C(=O)c2ccccc2)c2ccc(Cl)cc2)CC1 | 3.31 | -2.45
CC(C)(C)n1nnnc1C(c1cccc2ccccc12)N1CCC(n2c(=O)[nH]c3ccccc32)CC1 (stereo unspecified) | 8.13 | 1.19
CN(C)C1(CNC(=O)c2cccc(C#N)c2)CCCCC1 | 12.3 | -0.466
O=c1[nH]c2ccccc2n1C1CCN(C(c2ccccc2)c2nnnn2C2CCCC2)CC1 (stereo unspecified) | -23.3 | -10.6
CCCN1CCC(Nc2cc(OC)cc(OC)c2)CC1 | 11.8 | 23.3
Cc1cc(N(CCCl)CCCl)ccc1C=O | -3.42 | 4.16
C/C(N)=N\P(=O)(Oc1ccccc1)Oc1ccccc1 | 1.58 | 4.08
O=c1[nH]c2ccccc2n1C1CCN(C(c2cccs2)c2nnnn2C2CCCCC2)CC1 (stereo unspecified) | -10.4 | -4.84
O=c1[nH]c2ccccc2n1C1CCN(C(c2ccnc3ccccc23)c2nnnn2C2CCCC2)CC1 (stereo unspecified) | -2.74 | 11.3
COc1ccc(C(=O)NCC2(N3CCOCC3)CCCCC2)cc1OC | 7.78 | 1.21
COc1cc(C(=O)NCC2(N3CCOCC3)CCCCC2)cc(OC)c1C | 2.58 | -1.54
CCCCn1nnnc1C(c1ccccc1)N1CCC(n2c(=O)[nH]c3ccccc32)CC1 (stereo unspecified) | -38.3 | 4.75
O=C(NCC1(N2CCOCC2)CCCCC1)c1cc(Br)ccc1Cl | -31.8 | -3.15
O=c1[nH]c2ccccc2n1C1CCN(C(c2cccs2)c2nnnn2C2CCCC2)CC1 (stereo unspecified) | -14.7 | 1.97
CCCCn1nnnc1C(c1cccc(OC)c1OC)N1CCC(n2c(=O)[nH]c3ccccc32)CC1 (stereo unspecified) | -29.6 | -1.28
COc1cccc(C(c2nnnn2C(C)(C)C)N2CCC(n3c(=O)[nH]c4ccccc43)CC2)c1OC (stereo unspecified) | -22.4 | -1.78
CCOC(=O)N1CCC(Nc2ccc(C)cc2)CC1 | 7.22 | -4.16
O=C(O)C1(Nc2ccccc2)CCN(Cc2ccccc2)CC1 | 14.7 | -0.698
NN(c1ccccc1)C1CCN(CCc2ccccc2)CC1 | 6.35 | -1.58

SMILES | OD600 change [%] | RFP signal change [%]
CC(C)(C)OC(=O)N1CCC(Nc2ccccc2)CC1 | 8.54 | 7.35
CCCOc1ccc(C(=O)NCC2(N(C)C)CCCCC2)cc1 | 17.1 | 3.79
O=c1[nH]c2ccccc2n1C1CCN(C(c2cc3ccccc3o2)c2nnnn2C2CCCC2)CC1 (stereo unspecified) | 11.1 | 2.68
CN1CCC(Nc2ccc(F)c(Cl)c2)CC1 | -0.87 | 0.468
CN1CCC(Nc2ccc(Cl)cc2)CC1 | 2.58 | 4.91
COc1cc(OC)cc(C(=O)NCC2(N3CCOCC3)CCCCC2)c1 | -5.12 | 0.81
COc1cccc(C(c2nnnn2C2CCCC2)N2CCC(n3c(=O)[nH]c4ccccc43)CC2)c1OC (stereo unspecified) | -20.5 | -4.46
COc1cccc(C(=O)N(c2cc(C)cc(C)c2)C2CCN(C(=O)OC(C)(C)C)CC2)c1 | 2.03 | -1.89
Fc1ccccc1NC1CCN(Cc2ccccc2)CC1 | 8.46 | 2.87
Cc1ccc(C(=O)NCC2(N3CCCCC3)CCCCC2)o1 | 9.98 | 0.135
CCC(c1nnnn1C1CCCCC1)N1CCC(n2c(=O)[nH]c3ccccc32)CC1 (stereo unspecified) | -24.2 | -2.31
CC(=O)N(c1ccccc1)C1CCNCC1 | 14.6 | 0.81
COc1cccc(C(c2nnnn2C2CCCCC2)N2CCC(n3c(=O)[nH]c4ccccc43)CC2)c1OC (stereo unspecified) | 11.4 | -8.53
O=c1[nH]c2ccccc2n1C1CCN(C(c2ccnc3ccccc23)c2nnnn2C2CCCCC2)CC1 (stereo unspecified) | 17.5 | 0.694
COc1cc(OC)cc(C(=O)NCC2(N3CCCCC3)CCCCC2)c1 | 3.67 | 0.025
Cn1c(=O)[nH]cc(N(CCCl)CCCl)c1=O | 25.6 | -0.075
CN(C)c1ccc(C(=O)NCC2(N3CCCCC3)CCCCC2)cc1 | 11.8 | 2.99
O=C(NCC1(N2CCCCC2)CCCCC1)c1ccco1 | 1.77 | 32.8
CC(C)(C)n1nnnc1C(c1ccnc2ccccc12)N1CCC(n2c(=O)[nH]c3ccccc32)CC1 (stereo unspecified) | -37.5 | -6.29
COc1ccc(C(c2nnnn2C2CCCCC2)N2CCC(n3c(=O)[nH]c4ccccc43)CC2)cc1 (stereo unspecified) | -4.28 | 4.36
Cc1ccccc1NC1(C#N)CCN(Cc2ccccc2)CC1 | 17.5 | 2.44
